# Measured values reported in PubChem BioAssay AID1347426 (Functional Genomics Laboratory (NCATS/FGL), 2020).
# Out of some 31,000 sequences screened, about 1,400 (4.5%) were called active.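 The calls were made as follows: active = median seed-adjusted z-score above 1 or below -1; inactive = the rest.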 This is one part of the list.
# Test: Novel Modifiers of Survival Motor Neuron (SMN) Protein: Gene Identification via Genome-wide siRNA Screen;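 also: luminescence tracks full-length SMN protein made from the SMN2 reporter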
# Conditions: HEK293T SMN2-luciferase reporter, siRNA knockdown, 72 h; actives lie on both sides
# Outline: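 siRNA screen, 10418 genes ×3 siRNAs; 1 pmol/well, lipid reverse transfection into HEK293T SMN2-luc reporter line. 72 h, 37 °C, 5% CO2; ONE-Glo readout. Data: neg-ctrl normalized, log10, MAD; hit = MAD >1.0 or < -1.0.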
row,Sequence,median seed-adjusted z-score
1,UUACUUUCCUAGUAAGCAATT against GNA12,inactive: 0.598
2,GGGUUUGACCCACAGCAAATT against ATP1A3,inactive: 0.329
3,GGAUAUAGAGGAUACAGCATT against RFX5,inactive: 0.432
4,GGAUGAAGAUUGUGCGGGUTT against SGPL1,inactive: 0.139
5,CCAACAUUGUCACCUACAATT against NEK4,inactive: -0.076
6,GCUGUAGUCUAUUAUAUGATT against SLC1A3,inactive: -0.421
7,AGAUCUUCGCAAAUACUGUTT against KRT18,inactive: 0.558
8,GGCAGUUAGGUAUUCCAUATT against PCDHB5,inactive: 0
9,UGAACAUGCUCAAACCAGATT against GFRA3,inactive: -0.326
10,CCAUGACAGACGAAGAGAATT against AIP,inactive: 0.529
11,CUGUCAUUCCUGAAAAGAATT against STAMBP,inactive: 0.511
12,GAAUAGCAACCACCAAAUATT against PDE11A,inactive: 0
13,GCACGUGCUAGAGUACAAUTT against IMP3,inactive: 0.0239
14,GGCAUUAACAAAUAUAGCATT against KPNA5,inactive: -0.174
15,ACUCAGUGGAGGUCACCAATT against EIF3F,inactive: -0.0214
16,AGAUCUUACAUGUCAUUCATT against KLF8,inactive: 0.0976
17,CCGUCCUUAUCUCAUCAAATT against HADHA,inactive: 0.47
18,CCACAGACUUGGUGCCUGATT against RAB43,inactive: -0.0845
19,CCUUUUACAUGUUCUAUUUTT against SIVA1,inactive: 0.0451
20,GCCUAAACAGUGACCGAUUTT against BDH1,inactive: -0.0253
21,GCACUCCUGUGCUUUAAAATT against XYLB,inactive: -0.414
22,GAAUAGAUCUUGAAGACUUTT against FGL2,inactive: 0
23,GCUAGAUACUGGAAACCUATT against DCN,inactive: 0.326

row,Sequence,median seed-adjusted z-score
1,GCAAUCACAUUGCUCUGUATT against PIGL,inactive: 0.827
2,GAAGCUCUCUUGACUAUGATT against FKBP3,inactive: -0.102
3,AGACCGCUGUGAUCGAGGATT against NACC2,inactive: 0.144
4,GAAUCAUGCUUGUUGGUGATT against LEPREL1,inactive: 0.0654
5,GGCUGGGUUCAUUACAUGATT against CKS2,inactive: 0.0907
6,GCAUGCUGUUAGCCGAUAATT against TOMM70A,inactive: 0.0717
7,GACCAGUAAUGAUUGUGGUTT against EPHA6,inactive: 0.0445
8,CCCUGUGGAUCUACUCGAATT against RTN4RL1,inactive: -0.537
9,CCCUAUGAACAAUACGCAATT against DNAJC6,inactive: -0.265
10,GCCUGAGAAUAAUAUGUCUTT against EXO1,inactive: 0.547
11,GGCAUGAAUUUGAACUGUATT against CA8,inactive: 0.172
12,GCGCUUUGGAGAUCCGAGATT against KLC3,inactive: -0.156
13,GUAUGUCACCUAUCACUGUTT against SLC25A38,inactive: 0
14,CGACUCCUUCGACCACAAATT against PVALB,inactive: 0.11
15,GGAUGCUAAUGAAACUGGUTT against NR1H3,inactive: 0.426
16,CCAGAGGCAGAGUACAUCATT against VGLL2,inactive: -0.0234
17,UGAGCUGUCCCAUUAAACATT against ARHGDIG,inactive: 0.227
18,CAAGGUUUUUAGUUACAAUTT against ZNF480,inactive: -0.164
19,GGAAUUAUAUUCAUCGUGATT against LCK,inactive: 0.676
20,GGCUGUUCGAGUCCUGAAATT against FMO1,inactive: 0.323
21,CCAAUGCUGUGACUUUCGATT against KIFC3,inactive: 0.54
22,GAACUGUUUGUUAACGUAATT against RIPK3,inactive: 0.123
23,CAACUUGUCUCAGUCAACATT against STXBP4,inactive: -0.565

# 2 successive entries from above, quoted:
row,Sequence,median seed-adjusted z-score
9,CCCUAUGAACAAUACGCAATT against DNAJC6,inactive: -0.265
10,GCCUGAGAAUAAUAUGUCUTT against EXO1,inactive: 0.547

# Additional records.

row,Sequence,median seed-adjusted z-score
1,GGGUUAGGAGUGUACAUCATT against NIN,inactive: 0.646
2,GGCCUUUCCUUUACUGUCATT against ABCC4,active: -1.66
3,AGAACAACCGGAUUCGAGATT against LRRC52,inactive: 0.118
4,GAUUCGUUCUUCUACAACUTT against PSMD2,active: -1.44
5,ACCAAUAUGUGCUCACUUUTT against MOGAT3,inactive: -0.383
6,GAGUAUGCGUUGAGACAUUTT against LGMN,inactive: 0.391
7,ACCUGAAGUUUGCCCGCUATT against SLC29A2,inactive: -0.0569
8,GAAUAGAUUUCAGUAGUAUTT against DDI2,active: 1.27
9,AGGAGUUCCAUUUCAACAATT against HOXB1,inactive: -0.0455
10,CGAUGAAACUCUCAUAGAUTT against HK1,inactive: -0.129
11,CAAAAGGACUAAUACCAUATT against HIBCH,inactive: 0.0655
12,CCCACUAAAUUUUCGGAAATT against ATAD2,inactive: -0.246
13,GGUGCAAGAGAGUCCGUUUTT against D2HGDH,inactive: -0.637
14,GCAGGUUUCUCAUCGAUUUTT against MYST3,inactive: -0.49
15,GCUACACGCUGAUGAACAATT against KIF17,inactive: -0.151
16,GACACUACCUUCUCCCAUUTT against NR1I2,inactive: -0.922
17,GCCUUAUUAUGAUCUUGUATT against TGFBR1,inactive: 0.226
18,GGCUCAAUAACAUCGUUAATT against BCL6,inactive: -0.352
19,GGAGUUCGCAAAAUCGUCATT against NRK,inactive: 0.0687
20,CCUAAUUCCUGGAGUGAUATT against SAMD7,inactive: 0.161
21,GAUGUGACCUAUCAAAUGATT against DHRS11,inactive: -0.476
22,UGAUCUCAGUCGAAGAAGATT against ZP4,inactive: 0.0498
23,GGUGGACACUUGUAUACAATT against KCTD6,inactive: 0.124
